Data reported in patent US20120225088, “COMPOSITIONS AND METHODS FOR TREATING CANCER AND OTHER DISEASES” (published 2012).
For some assays here: Results from cells or extracts need not show a direct contact. No signal at the amounts used counts as a negative. Construct, isoform or probe ends are uncertain for at least one entry.

The chains behind the UniProt entries cited, without tags or fusion partners.
UniProt P01871, whole entry: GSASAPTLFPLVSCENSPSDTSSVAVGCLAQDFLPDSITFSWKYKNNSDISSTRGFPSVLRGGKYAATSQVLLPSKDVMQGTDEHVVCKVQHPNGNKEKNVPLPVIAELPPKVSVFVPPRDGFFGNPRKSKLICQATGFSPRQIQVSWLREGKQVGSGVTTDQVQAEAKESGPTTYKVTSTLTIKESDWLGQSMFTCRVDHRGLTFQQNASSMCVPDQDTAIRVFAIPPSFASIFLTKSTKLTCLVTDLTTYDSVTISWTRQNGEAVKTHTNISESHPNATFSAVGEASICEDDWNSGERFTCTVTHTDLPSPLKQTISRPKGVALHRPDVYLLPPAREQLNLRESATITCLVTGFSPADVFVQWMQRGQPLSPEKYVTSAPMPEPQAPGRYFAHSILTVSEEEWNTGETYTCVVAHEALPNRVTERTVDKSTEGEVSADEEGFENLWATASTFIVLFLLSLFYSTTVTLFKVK

Assays:
[1] = biological target: membrane-bound IgM (mIgM, immunoglobulin heavy mu chain of B-cell receptor) (Homo sapiens) (UniProt P01871); assay: flow cytometry; details: protein on the cell surface, protein details: endogenous on Ramos Burkitt's lymphoma cells, single-stranded DNA; for Kd: Bmax/2 on Ramos cells, 37 C, letters built from the parent sequence and the stated change
[2] = system: soluble IgM (pentameric, purified); assay: competition with a labelled probe; details: purified native protein, single-stranded DNA

**Q.** Does “ACCGTGGAGGATAGTTCGGTGGCTGTTCAGGGTCTCCTCCACGGT [TD05]” bind ([1]; unable to bind Ramos cells at physiological conditions, signal falls to background at higher temperatures, label: 5' FITC or Cy3)?
**A.** Result: no binding

**Q.** Does “AGGAGGATAGTTCGGTGGCTGTTCAGGGTCTCCTCCT [TD05.1]” bind ([2]; excess soluble IgM or 20% human serum does not affect aptamer binding to Ramos cells, monomeric aptamer, label: 5' FITC or Cy3, variant of TD05)?
**A.** Result: no binding

**Q.** For “AGGAGGATAGTTCGGTGGCTGTTCAGGGTCTCCTCCTAGGAGGATAGTTCGGTGGCTGTTCAGGGTCTCCTCCT [BV.6S]”, which Kd ([1]; TD05.1 dimer with (spacer 18 PEG)6 linker [(spacer 18 PEG)6 linker between 37 and 38 (left out)], label: 5' fluorophore, variant of TD05.1) is on record?
**A.** Its Kd is > 10000 nM.

**Q.** How did the Kd ([1]; TD05.1 dimer with (spacer 18 PEG)8 linker [(spacer 18 PEG)8 linker between 37 and 38 (left out)], slightly higher binding than BV.6S and BV.12S at 4 C, label: 5' fluorophore, variant of TD05.1) turn out when “AGGAGGATAGTTCGGTGGCTGTTCAGGGTCTCCTCCTAGGAGGATAGTTCGGTGGCTGTTCAGGGTCTCCTCCT [BV.8S]” was run?
**A.** The Kd was > 10000 nM.

**Q.** For “AGGAGGATAGTTCGGTGGCTGTTCAGGGTCTCCTCCTAGGAGGATAGTTCGGTGGCTGTTCAGGGTCTCCTCCT [BV.12S]”, which Kd ([1]; TD05.1 dimer with (spacer 18 PEG)12 linker [(spacer 18 PEG)12 linker between 37 and 38 (left out)], label: 5' fluorophore, variant of TD05.1) is on record?
**A.** The Kd was > 10000 nM.

**Q.** For “AGGAGGATAGTTCGGTGGCTGTTCAGGGTCTCCTCCTAGGAGGATAGTTCGGTGGCTGTTCAGGGTCTCCTCCT [BV.16S]”, which Kd ([1]; TD05.1 dimer with (spacer 18 PEG)16 linker [(spacer 18 PEG)16 linker between 37 and 38 (left out)], 20 mM MgCl2, label: 5' fluorophore, variant of TD05.1) is on record?
**A.** Its Kd is 2030 nM.

**Q.** “AGGAGGATAGTTCGGTGGCTGTTCAGGGTCTCCTCCTAGGAGGATAGTTCGGTGGCTGTTCAGGGTCTCCTCCT [L-BVA.8S]” was tested. Which Kd ([1]; TD05.17 (LNA) dimer with (spacer 18 PEG)8 linker, sp18 at 5' and 3' ends [LNA at 34-37 and 71-74 (Y = LNA T, N = LNA C), 5' label (D) and sp18 before 1, (spacer 18 PEG)8 linker between 37 and 38, sp18 after 74 (left out)], 20 mM MgCl2, label: 5' FITC, variant of TD05.17) did it give?
**A.** The Kd was 6220 nM.

**Q.** For “AGGAGGATAGTTCGGTGGCTGTTCAGGGTCTCCTCCTAGGAGGATAGTTCGGTGGCTGTTCAGGGTCTCCTCCTAGGAGGATAGTTCGGTGGCTGTTCAGGGTCTCCTCCT [TVA.8S]”, which Kd ([1]; TD05.1 trimer with (spacer 18 PEG)8 linkers [(spacer 18 PEG)8 linkers between 37 and 38, and between 74 and 75 (left out)], 20 mM MgCl2, label: 5' fluorophore, variant of TD05.1) is on record?
**A.** The Kd was 490 nM.

**Q.** Which results are given for “AGGAGGATAGTTCGGTGGCTGTTCAGGGTCTCCTCCTAGGAGGATAGTTCGGTGGCTGTTCAGGGTCTCCTCCTAGGAGGATAGTTCGGTGGCTGTTCAGGGTCTCCTCCTAGGAGGATAGTTCGGTGGCTGTTCAGGGTCTCCTCCT [TetVA.8S]”?
**A.** binding result ([2]; TD05.1 tetramer with (spacer 18 PEG)8 linkers [(spacer 18 PEG)8 linkers between 37 and 38, 74 and 75, 111 and 112 (left out)], excess soluble IgM does not affect binding to Ramos cells, decrease seen in 50% human serum, label: FITC, letters built from the parent sequence and the stated change, variant of TD05.1): no binding; Kd ([1]; TD05.1 tetramer with (spacer 18 PEG)8 linkers [(spacer 18 PEG)8 linkers between 37 and 38, 74 and 75, 111 and 112 (left out)], 20 mM MgCl2, label: FITC, variant of TD05.1): 425 nM

**Q.** “AGGAGGATAGTTCGGTGGCTGTTCAGGGTCTCCTCCTAGGAGGATAGTTCGGTGGCTGTTCAGGGTCTCCTCCTGGAGGATAGTTCGGTGGCTGTTCAGGGTCTCCTCCT [L-TVA.8S]” was tested. Which Kd ([1]; TD05.17 (LNA) trimer with (spacer 18 PEG)8 linkers, sp18 at 5' and 3' ends [LNA at 34-37, 71-74 and 107-110 (Y = LNA T, N = LNA C), 5' label (D) and sp18 before 1, (spacer 18 PEG)8 linkers between 37 and 38, 74 and 75, sp18 after 110 (left out), third unit printed without its 5' A], 20 mM MgCl2, label: 5' Cy3, variant of TD05.17) did it give?
**A.** Its Kd is 256 nM.
